# Laboratory results published in the supplement of paper PMC8728848.
# This is one part of the list.
# B1: SJCP1084 (Schistosoma japonicum) (protein)
# chain: MRIINLVIISTALLLINLLQTKSQANGEDTKNGTPDDPGLTKSTELKVEVQALLKDKKTNMRVKWNENLLDNTKPEYHNLRDEACELLLQIVRSVVPLSQDDGECKDVTFTKYVVGTKDGAVNVKLTITFKDSVAINQKPMDLKLKLENDFKNLQSESTLKATKPTFTVKVEKRLIPISKPQTTPPTTAKNDASKENVGDIGGEDSTVPTAAPATAASANEEKDEGDKDNKDSQHPNVLTSNVNDRNLIIALVALMILAIGVALTAAVKQR
# Key:
# Experiment in all cases: glycan array binding signal (z-score within array); higher = stronger binding
# Details in all cases: glycan notation: IUPAC condensed, linker removed
# [1] = target: GlcNAc(b1-4)GlcNAc(b1-4)GlcNAc(b1-4)GlcNAc(b1-4)GlcNAc(b1-4)GlcNAc
# How it was run: (§1)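 The binding signal is a Z-score computed within each array. Data were drawn from 3228 arrays in the Consortium for Functional Glycomics database, restricted to those with a known protein sequence. Scores were averaged over arrays of the same protein sequence at different concentrations or buffers, and over linkers, and negative values can be taken as non-binding.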
# [2] = target: GlcNAc(b1-4)[GlcNAc(b1-6)]GalNAc
# How it was run: as §1
# [3] = target: GlcNAc(b1-6)Gal(b1-4)GlcNAc
# How it was run: as §1
# [4] = target: GlcNAc(b1-6)GalNAc
# How it was run: as §1
# [5] = target: GlcNAc6S(b1-3)Gal(b1-4)GlcNAc
# How it was run: as §1
# [6] = target: Kdn(a2-3)Gal(b1-3)GalNAc
# How it was run: as §1
# [7] = target: Kdn(a2-3)Gal(b1-3)GlcNAc
# How it was run: as §1
# [8] = target: Kdn(a2-3)Gal(b1-4)Glc
# How it was run: as §1
# [9] = target: Kdn(a2-3)Gal(b1-4)GlcNAc
# How it was run: as §1
# [10] = target: Kdn(a2-3)Gal(b1-4)[Fuc(a1-3)]GlcNAc
# How it was run: as §1
# [11] = target: Kdn(a2-6)Gal(b1-4)GlcNAc
# How it was run: as §1
# [12] = target: Man(a1-2)Man(a1-2)Man(a1-3)Man
# How it was run: as §1
# [13] = target: Man(a1-2)Man(a1-2)Man(a1-6)[Man(a1-3)]Man
# How it was run: as §1
# [14] = target: Man(a1-2)Man(a1-3)Man
# How it was run: as §1
# [15] = target: Man(a1-2)Man(a1-3)[Man(a1-2)Man(a1-6)]Man
# How it was run: as §1
# [16] = target: Man(a1-2)Man(a1-3)[Man(a1-2)Man(a1-6)]Man(a1-6)[Man(a1-2)Man(a1-2)Man(a1-3)]Man
# How it was run: as §1
# [17] = target: Man(a1-2)Man(a1-3)[Man(a1-2)Man(a1-6)]Man(a1-6)[Man(a1-2)Man(a1-2)Man(a1-3)]Man(b1-4)GlcNAc(b1-4)GlcNAc
# How it was run: as §1
# [18] = target: Man(a1-2)Man(a1-3)[Man(a1-6)]Man(a1-6)[Man(a1-2)Man(a1-3)]Man(b1-4)GlcNAc(b1-4)GlcNAc
# How it was run: as §1
# [19] = target: Man(a1-2)Man(a1-6)[Man(a1-3)]Man(a1-6)[Man(a1-2)Man(a1-2)Man(a1-3)]Man
# How it was run: as §1
# [20] = target: Man(a1-2)Man(a1-6)[Man(a1-3)]Man(a1-6)[Man(a1-2)Man(a1-2)Man(a1-3)]Man(b1-4)GlcNAc(b1-4)GlcNAc
# How it was run: as §1
# [21] = target: Man(a1-3)[Man(a1-6)]Man
# How it was run: as §1
# [22] = target: Man(a1-3)[Man(a1-6)]Man(a1-6)[Man(a1-2)Man(a1-3)]Man(b1-4)GlcNAc(b1-4)GlcNAc
# How it was run: as §1
# [23] = target: Man(a1-3)[Man(a1-6)]Man(a1-6)[Man(a1-3)]Man
# How it was run: as §1
# [24] = target: Man(a1-3)[Man(a1-6)]Man(a1-6)[Man(a1-3)]Man(b1-4)GlcNAc(b1-4)GlcNAc
# How it was run: as §1
# [25] = target: Man(a1-3)[Man(a1-6)]Man(b1-4)GlcNAc(b1-4)GlcNAc
# How it was run: as §1
# [26] = target: Man(a1-3)[Man(a1-6)]Man(b1-4)GlcNAc(b1-4)[Fuc(a1-6)]GlcNAc
# How it was run: as §1
# [27] = target: Man(a1-6)Man
# How it was run: as §1
# [28] = target: Man(b1-4)GlcNAc
# How it was run: as §1
# [29] = target: MurNAc(b1-4)GlcNAc
# How it was run: as §1
# [30] = target: Neu5Ac(a2-3)Gal
# How it was run: as §1
# [31] = target: Neu5Ac(a2-3)Gal(b1-3)GalNAc
# How it was run: as §1
# [32] = target: Neu5Ac(a2-3)Gal(b1-3)GalNAc(b1-3)Gal(a1-4)Gal(b1-4)Glc
# How it was run: as §1
# [33] = target: Neu5Ac(a2-3)Gal(b1-3)GalNAc(b1-4)Gal(b1-4)Glc
# How it was run: as §1
# [34] = target: Neu5Ac(a2-3)Gal(b1-3)GalNAc(b1-4)[Neu5Ac(a2-3)]Gal(b1-4)Glc
# How it was run: as §1
# [35] = target: Neu5Ac(a2-3)Gal(b1-3)GalNAc(b1-4)[Neu5Ac(a2-8)Neu5Ac(a2-3)]Gal(b1-4)Glc
# How it was run: as §1
# [36] = target: Neu5Ac(a2-3)Gal(b1-3)GalNAc6S
# How it was run: as §1
# [37] = target: Neu5Ac(a2-3)Gal(b1-3)GlcNAc
# How it was run: as §1
binder,measurement,setting,value
B1,glycan array binding signal (z-score),[1],-0.608
same,glycan array binding signal (z-score),[2],0.927
same,glycan array binding signal (z-score),[3],-0.211
same,glycan array binding signal (z-score),[4],-0.023
same,glycan array binding signal (z-score),[5],0.716
same,glycan array binding signal (z-score),[6],1.08
same,glycan array binding signal (z-score),[7],-0.193
same,glycan array binding signal (z-score),[8],-0.188
same,glycan array binding signal (z-score),[9],0.128
same,glycan array binding signal (z-score),[10],0.524
same,glycan array binding signal (z-score),[11],-0.175
same,glycan array binding signal (z-score),[12],-0.684
same,glycan array binding signal (z-score),[13],0.854
same,glycan array binding signal (z-score),[14],-1.17
same,glycan array binding signal (z-score),[15],-0.874
same,glycan array binding signal (z-score),[16],0.289
same,glycan array binding signal (z-score),[17],-1.47
same,glycan array binding signal (z-score),[18],-1.28
same,glycan array binding signal (z-score),[19],0.462
same,glycan array binding signal (z-score),[20],0.087
same,glycan array binding signal (z-score),[21],0.411
same,glycan array binding signal (z-score),[22],-0.213
same,glycan array binding signal (z-score),[23],-0.67
same,glycan array binding signal (z-score),[24],-1.12
same,glycan array binding signal (z-score),[25],-0.739
same,glycan array binding signal (z-score),[26],-0.869
same,glycan array binding signal (z-score),[27],-1.01
same,glycan array binding signal (z-score),[28],0.833
same,glycan array binding signal (z-score),[29],1.04
same,glycan array binding signal (z-score),[30],-1.65
same,glycan array binding signal (z-score),[31],-0.71
same,glycan array binding signal (z-score),[32],0.037
same,glycan array binding signal (z-score),[33],-0.384
same,glycan array binding signal (z-score),[34],-0.565
same,glycan array binding signal (z-score),[35],-1.13
same,glycan array binding signal (z-score),[36],0.118
same,glycan array binding signal (z-score),[37],0.547

# Pulled one by one from the entries so far:
binder,measurement,setting,value
B1,glycan array binding signal (z-score),[35],-1.13
same,glycan array binding signal (z-score),[21],0.411
